The other results are listed elsewhere or left out.
Target: OsWRKY34 (Oryza sativa, UniProt Q0JBA9 1-250)
Assay: protein-binding microarray (RPBM); PBS, 2% BSA, 51.3 ng/ul salmon testes DNA, 50 uM zinc acetate, 200 nM TF, 25 C, 1 h; high values mean tight binding
Details: protein: recombinant; tags: N-terminal polyhistidine and DsRed monomer fusion (pET32a); label: CyDye5-dUTP incorporated in the synthesized complementary strand; 3' TTTTT single-stranded linker to array surface; dsDNA, one strand shown
Method in brief: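 In PBS with 2% BSA, salmon testes DNA and 50 µM zinc acetate, 200 nM protein was incubated on a custom Agilent array at 25 °C for 1 h and then washed off. The array had been made double-stranded by primer extension with Cy5-dUTP and blocked with 2% BSA. The proteins were transcription factors fused N-terminally to polyhistidine and DsRed, expressed in E. coli BL21-CodonPlus and purified on Ni–NTA. The binding signal is per-feature fluorescence intensity (arbitrary units) from an Axon 4000B scanner.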

The chains behind the UniProt entries cited, without tags or fusion partners.
UniProt Q0JBA9, entry or part of it: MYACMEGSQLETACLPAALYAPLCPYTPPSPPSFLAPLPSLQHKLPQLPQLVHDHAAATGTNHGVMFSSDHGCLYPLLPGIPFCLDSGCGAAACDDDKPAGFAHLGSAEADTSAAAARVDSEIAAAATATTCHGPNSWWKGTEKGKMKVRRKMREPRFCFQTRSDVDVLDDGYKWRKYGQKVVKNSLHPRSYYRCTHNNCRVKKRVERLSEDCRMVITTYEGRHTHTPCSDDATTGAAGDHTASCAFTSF

| Sequence | binding signal |
| --- | --- |
| TCTGTTTGCGTCTTTGCCTTTTGGGACCCTTGCCTTTTTACGGAGTCACCTAGTGCAG | 15100 fluorescence intensity (a.u.) |
| GTACGGAGCAAATTCTCTCCTTAACTAATTATATGTCAATCGGAGTCACCTAGTGCAG | 8090 fluorescence intensity (a.u.) |
| TCTTTTTGTTTGCTCCAGCTTCTCCATGGTTTTTTTTGTTCGGAGTCACCTAGTGCAG | 9230 fluorescence intensity (a.u.) |
| AGTCTTTTGTTAATGCATATTGTTGAATTCTTGGGGTTGACGGAGTCACCTAGTGCAG | 13700 fluorescence intensity (a.u.) |
| CCTTTCCGGTCATATCAGCGTCCTTCGCCCGACCAATCACCGGAGTCACCTAGTGCAG | 8600 fluorescence intensity (a.u.) |
| TTTAGTTTCTCTGTTGGACCGTACAATCCGGTGTTCTTCCCGGAGTCACCTAGTGCAG | 9140 fluorescence intensity (a.u.) |
| ACTCGCGATATGCTTGTAACTTGGTTTGGTATTCCATTCTCGGAGTCACCTAGTGCAG | 9670 fluorescence intensity (a.u.) |
| AAATATACCGTTTTGCTTATTCCGCGATGGCTCCAAGTCTCGGAGTCACCTAGTGCAG | 11400 fluorescence intensity (a.u.) |
| GTATTTCTATATGGACTCTAGTCACCTCTTCTAATATTTCCGGAGTCACCTAGTGCAG | 10300 fluorescence intensity (a.u.) |
| ACATACTTCCTAAACTGCTAAACGGTGTATGTTTGTTTTTCGGAGTCACCTAGTGCAG | 9770 fluorescence intensity (a.u.) |
| TTGCTGCGCAAAGATTTGGTCCTTTCTCGGTCTGTTTCTTCGGAGTCACCTAGTGCAG | 9420 fluorescence intensity (a.u.) |
| ATGGGTTAATTTTTGGATATATGTTAACTTGCTCACTATACGGAGTCACCTAGTGCAG | 8430 fluorescence intensity (a.u.) |
| TGACTCCCTTAACTATTGGCCAAATCTAATTCGTATCCTTCGGAGTCACCTAGTGCAG | 9250 fluorescence intensity (a.u.) |
| ATAGGCATGGTTTAATTATTCGGTTTGGCCGATTCTATCACGGAGTCACCTAGTGCAG | 9190 fluorescence intensity (a.u.) |
| CCCCACCCCGCGTGTCCACCCACCCACCCGCACCAATTTTCGGAGTCACCTAGTGCAG | 9600 fluorescence intensity (a.u.) |
| ATCTCCGCCGCCGCCGCCTCCTACTCGTCGCCCTCCTCCTCGGAGTCACCTAGTGCAG | 10300 fluorescence intensity (a.u.) |
| ATATATCATTGTGTATTTCTATCTTTTGCTGTTGTAATAGCGGAGTCACCTAGTGCAG | 9670 fluorescence intensity (a.u.) |
| GGTTGGGGCGTGGGCGGCTGGGCGCGTGGGTTGCCCGCGACGGAGTCACCTAGTGCAG | 15600 fluorescence intensity (a.u.) |
| GCTTGTGGTTCGTTAGAATCTTGCTTTGTTGCCGCCTAACCGGAGTCACCTAGTGCAG | 8070 fluorescence intensity (a.u.) |
| CTTTTCTAGCCGTTCACTTTTTTTTACCACAGTAGTTTTTCGGAGTCACCTAGTGCAG | 16600 fluorescence intensity (a.u.) |
| CATGCACTCTCGCCATCTCGATCTTTTTACCCAATTCTTGCGGAGTCACCTAGTGCAG | 8280 fluorescence intensity (a.u.) |

| Sequence | binding signal |
| --- | --- |
| TGCTAATGGTTTTTTTGTTATGCATTCCTTTAACTTCATCCGGAGTCACCTAGTGCAG | 12400 fluorescence intensity (a.u.) |
| AAAACCTGCAGCAGAGATGAGCCGTTTCGTTTCCTTTCGTCGGAGTCACCTAGTGCAG | 8870 fluorescence intensity (a.u.) |
| AGTCCAAGCCGGCCCAACACCCAGCCGAGCCGCCAATTCGCGGAGTCACCTAGTGCAG | 8050 fluorescence intensity (a.u.) |
| TTACACTACGATTGTACTGTAATTACATCTGTCAAATTTTCGGAGTCACCTAGTGCAG | 8450 fluorescence intensity (a.u.) |
| TAATCCAGTGGGAACACAGCAACGCACCTTTTTTTGTTTTCGGAGTCACCTAGTGCAG | 10100 fluorescence intensity (a.u.) |
| GCTCAATTCCTAGCCGTTGCCATATACTACTCCGTATGTGCGGAGTCACCTAGTGCAG | 11000 fluorescence intensity (a.u.) |
| CGAGTCAAGCTCCGCCAGTGAGAATACAGGTTGACTTCGACGGAGTCACCTAGTGCAG | 8510 fluorescence intensity (a.u.) |
| CCTCAACGGCACCATCCCCGCCGGCTTGCTCTACCTGCCACGGAGTCACCTAGTGCAG | 9380 fluorescence intensity (a.u.) |
| GGCTTTCAAGCTTCCAGCCCAGTTTAGTTCAACGCCCATTCGGAGTCACCTAGTGCAG | 8320 fluorescence intensity (a.u.) |
| AGGTGTTGGTTGGGAAATCCGATACTTATGCGGGGTTCCCCGGAGTCACCTAGTGCAG | 8840 fluorescence intensity (a.u.) |
| AACACATGAATCAGTGTTTTGACTCATTTCTCCCTTTGTACGGAGTCACCTAGTGCAG | 8250 fluorescence intensity (a.u.) |
| AGTTCTTTTACCAACTTTTCCAATTTACCACCCTCATTTTCGGAGTCACCTAGTGCAG | 8560 fluorescence intensity (a.u.) |
| CTATATAAGCAGCCGCAGTAGCGCACCACATAGCTCGCTCCGGAGTCACCTAGTGCAG | 8210 fluorescence intensity (a.u.) |
| GAAGGTTCCTTGGTTTTCATATAGACTTTCCATACAGCATCGGAGTCACCTAGTGCAG | 8520 fluorescence intensity (a.u.) |
| CGCCAACTCCGGCCCGCCTAGTCTTTCTCAACAACCAGAACGGAGTCACCTAGTGCAG | 8280 fluorescence intensity (a.u.) |
| GCTGGGAGCTCGGATCACGTCGTGTGGTTGTGGGGATGGACGGAGTCACCTAGTGCAG | 9170 fluorescence intensity (a.u.) |
| GGCGAGGGTGGGTATGGGACAAGGCGGTGGATGATGGTTCCGGAGTCACCTAGTGCAG | 12200 fluorescence intensity (a.u.) |
| ATATCCTTCCAAATGATACTGTGCTTCTTTCTGTTACAAACGGAGTCACCTAGTGCAG | 9410 fluorescence intensity (a.u.) |
| ATGATGATTGGTTGGTTACGGGCATGTTCAGATTGTAGCCCGGAGTCACCTAGTGCAG | 9600 fluorescence intensity (a.u.) |
| ATCTCATACTTCATCAGTGAATAATTTCATGAGTATTGTTCGGAGTCACCTAGTGCAG | 8510 fluorescence intensity (a.u.) |
| AATAAGCAACCCAGTCTTACACGCGACACGGCATATGCACCGGAGTCACCTAGTGCAG | 9670 fluorescence intensity (a.u.) |

In another format: results already given
Sequence | binding signal
TGCTAATGGTTTTTTTGTTATGCATTCCTTTAACTTCATCCGGAGTCACCTAGTGCAG | 12400 fluorescence intensity (a.u.)
AAAACCTGCAGCAGAGATGAGCCGTTTCGTTTCCTTTCGTCGGAGTCACCTAGTGCAG | 8870 fluorescence intensity (a.u.)
AGTCCAAGCCGGCCCAACACCCAGCCGAGCCGCCAATTCGCGGAGTCACCTAGTGCAG | 8050 fluorescence intensity (a.u.)
TTACACTACGATTGTACTGTAATTACATCTGTCAAATTTTCGGAGTCACCTAGTGCAG | 8450 fluorescence intensity (a.u.)
TAATCCAGTGGGAACACAGCAACGCACCTTTTTTTGTTTTCGGAGTCACCTAGTGCAG | 10100 fluorescence intensity (a.u.)
GCTCAATTCCTAGCCGTTGCCATATACTACTCCGTATGTGCGGAGTCACCTAGTGCAG | 11000 fluorescence intensity (a.u.)
CGAGTCAAGCTCCGCCAGTGAGAATACAGGTTGACTTCGACGGAGTCACCTAGTGCAG | 8510 fluorescence intensity (a.u.)
CCTCAACGGCACCATCCCCGCCGGCTTGCTCTACCTGCCACGGAGTCACCTAGTGCAG | 9380 fluorescence intensity (a.u.)
GGCTTTCAAGCTTCCAGCCCAGTTTAGTTCAACGCCCATTCGGAGTCACCTAGTGCAG | 8320 fluorescence intensity (a.u.)
AGGTGTTGGTTGGGAAATCCGATACTTATGCGGGGTTCCCCGGAGTCACCTAGTGCAG | 8840 fluorescence intensity (a.u.)
AACACATGAATCAGTGTTTTGACTCATTTCTCCCTTTGTACGGAGTCACCTAGTGCAG | 8250 fluorescence intensity (a.u.)
AGTTCTTTTACCAACTTTTCCAATTTACCACCCTCATTTTCGGAGTCACCTAGTGCAG | 8560 fluorescence intensity (a.u.)

From PMC7819943, “Rice protein-binding microarrays: a tool to detect cis-acting elements near promoter regions in rice”
